We go through 48 compounds from the supplement of paper PMC9226226.

Where “and” joins values, the source holds several entries; their conditions need not be identical. Identical values can stand only once. The list shows a part of the results. Some well-known active drugs show little effect in this data set, so a weak value is uncertain.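 The cells are human mesenchymal stem cells that lack the Werner syndrome gene and age prematurely. Growth was tracked by automated live-cell imaging in three biological repeats, and the twenty drugs that most raised growth over vehicle were taken forward, with no fixed cutoff stated.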

The subject of this assay is Werner syndrome hMSCs (WRN-/-). In words: relative cell density (fold change vs vehicle control); higher = more proliferation (geroprotective). To be noted: concentration (umol/L): 1, 6 days.

As for `O=C(O)CCNC(=O)c1ccc(/N=N/c2ccc(O)c(C(=O)O)c2)cc1`, the relative cell density (vehicle: DMSO) was 1.27. With `C[n+]1ccccc1/C=N/O`, where the note is “vehicle: Water”, the relative cell density came out at 1.34.

As to `Cc1cccc(Nc2ccccc2C(=O)O)c1C`, the relative cell density (vehicle: DMSO) was 1.31. In turn, `CCC(C)n1ncn(-c2ccc(N3CCN(c4ccc(OCC5COC(Cn6cncn6)(c6ccc(Cl)cc6Cl)O5)cc4)CC3)cc2)c1=O` (stereo not drawn) yielded a relative cell density (vehicle: Water) of 0.275.

As for `CCOc1cc(N)c(Cl)cc1C(=O)NCC1CN(Cc2ccc(F)cc2)CCO1` (stereo not drawn), the relative cell density (vehicle: DMSO) is 1.43 and 1.05. On the same count and under the same terms, with `O=C1OC(CN2CCOCC2)CN1/N=C/c1ccc([N+](=O)[O-])o1` (stereo not drawn) the figure was 1.11; with `Cc1ccsc1C(=CCCN1CCC[C@@H](C(=O)O)C1)c1sccc1C`, 0.998; with `C[n+]1ccccc1C=NO`, 1.11. Turning to `CCc1cnn2c(NCc3ccc[n+]([O-])c3)cc(N3CCCC[C@H]3CCO)nc12`, the relative cell density (vehicle: DMSO) came out at 0.145. For the compound `O=C1NC(=O)[C@@H](c2cn3c4c(cccc24)CCC3)[C@@H]1c1c[nH]c2ccccc12`, the relative cell density (vehicle: DMSO) came out at 0.315. Still for that read-out and setting: with `CCN(CC)Cc1cc(Nc2ccnc3cc(Cl)ccc23)ccc1O` the figure was 1.36; with `CCC(=O)OCC(=O)[C@@]1(OC(=O)CC)[C@@H](C)C[C@H]2[C@@H]3CCC4=CC(=O)C=C[C@]4(C)[C@@]3(Cl)[C@@H](O)C[C@@]21C`, 1.07. `O=C(/C=C/C=C/c1ccc2c(c1)OCO2)N1CCCCC1` came in with a relative cell density (vehicle: DMSO) of 1.23. On the same count and under the same terms, with `COc1nc(N)nc2c1ncn2[C@@H]1O[C@H](CO)[C@@H](O)[C@@H]1O` the figure was 0.942; with `COc1ccccc1N1CCN(CCCNc2cc(=O)n(C)c(=O)n2C)CC1`, 0.982; with `C#C[C@]1(O)CC[C@H]2[C@@H]3CCC4=CCCC[C@@H]4[C@H]3C(=C)C[C@@]21CC`, 1.4. Still for that read-out and setting: the result for `CN(C)[C@@H]1C(=O)C(C(N)=O)=C(O)[C@@]2(O)C(=O)C3=C(O)c4c(O)ccc(Cl)c4[C@@H](O)[C@H]3C[C@@H]12` reads 1.14; that for `Cn1cnc([N+](=O)[O-])c1Sc1ncnc2[nH]cnc12`, 1.13.

For `CC(=O)Oc1cc2c(s1)CCN(C(C(=O)C1CC1)c1ccccc1F)C2` (stereo not drawn), the relative cell density (vehicle: DMSO) is 0.855 and 0.824. On the same count and under the same terms, the result for `CC(C)C(=O)Nc1ccc([N+](=O)[O-])c(C(F)(F)F)c1` reads 1.2; that for `OCCN1C[C@H](O)[C@@H](O)[C@H](O)[C@H]1CO`, 1.1; that for `S=C(NCc1ccc2c(c1)OCO2)N1CCN(c2ncnc3c2oc2ccccc23)CC1`, 0.924. With `CC(=O)OCC[N+](C)(C)C`, the relative cell density (vehicle: DMSO) was determined as 1.28.

`COC(=O)C1=C(C)NC(C)=C(C(=O)OC(C)C)C1c1cccc2nonc12` (stereo not drawn): the relative cell density (vehicle: DMSO) was determined as 1.08. `C[C@H](CCC(=O)O)[C@H]1CC[C@H]2[C@@H]3CC[C@@H]4C[C@H](O)CC[C@]4(C)[C@H]3CC[C@]12C` registered a relative cell density (vehicle: DMSO) of 1.15. Where the note is “vehicle: DMSO”, `CC(=O)SCC(Cc1ccccc1)C(=O)NCC(=O)OCc1ccccc1` (stereo not drawn) had a relative cell density of 1.24.

In turn, `O=C(O)CCCC[C@@H]1SC[C@@H]2NC(=O)N[C@@H]21` yielded a relative cell density (vehicle: DMSO) of 1.31.

`CCOC(=O)Nc1ccc(NCc2ccc(F)cc2)nc1N` gave a relative cell density (vehicle: DMSO) of 1.03. The same measure, in the same setting: with `COCC(=O)Nc1c(I)c(C(=O)NCC(O)CO)c(I)c(C(=O)N(C)CC(O)CO)c1I` (stereo not drawn) the figure was 1.3. Still for that read-out and setting: with `NC(CO)C(=O)NNCc1ccc(O)c(O)c1O` (stereo not drawn) the figure was 1.24. As for `C[C@H]1COc2c(N3CCN(C)CC3)c(F)cc3c(=O)c(C(=O)O)cn1c23`, the relative cell density (vehicle: DMSO) was 1.27 and 1.24.

In turn, `CCCC(=O)OCOC(=O)C1=C(C)NC(C)=C(C(=O)OC)C1c1cccc(Cl)c1Cl` (stereo not drawn) came in with a relative cell density (vehicle: DMSO) of 1.06. On the same count and under the same terms, with `CN(C/C=C/C#CC(C)(C)C)Cc1cccc2ccccc12` the figure was 1.09 and 1.03. The same measure, in the same setting: with `Nc1nc(O)c2ncn(CCC(CO)CO)c2n1` the figure was 1.11; with `Fc1ccc([C@@H]2CCNC[C@H]2COc2ccc3c(c2)OCO3)cc1`, 1.03; with `Clc1ccc(Nc2nnc(Cc3ccncc3)c3ccccc23)cc1`, 1.18.

For the setting “vehicle: DMSO”, `COC(=O)c1ccc2c(C(=Nc3ccc(N(C)C(=O)CN4CCN(C)CC4)cc3)c3ccccc3)c(O)[nH]c2c1` gave a relative cell density of 0.877. For the compound `CCOC(=O)[C@H](CCc1ccccc1)N[C@@H](C)C(=O)N1Cc2cc(OC)c(OC)cc2C[C@H]1C(=O)O`, the relative cell density (vehicle: DMSO) is 1.17. Same read-out and setting: the result for `C[N+](C)(C)CCO.[Cl-]` reads 1.01.

Where the note is “vehicle: Water”, `C/C=C1\[C@H]2C=C(C)C[C@]1(N)c1ccc(=O)[nH]c1C2` registered a relative cell density of 0.889. For the compound `O=c1[nH]cnc2[nH]ncc12`, the relative cell density (vehicle: DMSO) amounted to 1.07.

Take `O=C(O)CSCC(=O)NC1CCSC1=O` (stereo not drawn): the relative cell density (vehicle: DMSO) turned out to be 1.06.

For the compound `COc1cc(/C=C/C(=O)CC(=O)/C=C/c2ccc(O)c(OC)c2)ccc1O`, the relative cell density (vehicle: DMSO) is 1.07. Still for that read-out and setting: the result for `CC(C)CN(C[C@@H](O)[C@H](Cc1ccccc1)NC(=O)O[C@H]1CO[C@H]2OCC[C@H]21)S(=O)(=O)c1ccc(N)cc1` reads 1.1. As for `NCC[C@H](O)C(=O)N[C@@H]1C[C@H](N)[C@@H](O[C@H]2O[C@H](CN)[C@@H](O)[C@H](O)[C@H]2O)[C@H](O)[C@H]1O[C@H]1O[C@H](CO)[C@@H](O)[C@H](N)[C@H]1O`, for the setting “vehicle: Water”, the relative cell density was 1.04 and 1.02. `O=C1c2cccc3c2[C@H](CCC3)CN1[C@@H]1CN2CCC1CC2` had a relative cell density (vehicle: Water) of 0.944. As for `CC(=O)Oc1ccccc1C(=O)O.CC(=O)Oc1ccccc1C(=O)O.NC(N)=O`, the relative cell density (vehicle: DMSO) stood at 1.06. Turning to `CC/C(=C(\c1ccccc1)c1ccc(OCCN(C)C)cc1)c1ccccc1`, the relative cell density (vehicle: DMSO) was 1.11 and 1.07.
